# Counter-ions that a name gives are not always drawn. The list shows a part of the results. Repeats in this data set agree poorly, so a single value says little.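 About 40 Schistosoma mansoni schistosomula per well were imaged over time in bright field and compared with 0.1% DMSO wells. A drug counts as a hit if its Mahalanobis distance reaches 2.47 or more, three standard deviations above the DMSO control mean. Degeneracy is the fraction of worms scored opaque.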 Numbered stars: 1 amine (or outer) side, 2 acyl side, 3 side chain; on linkers, the order of the positions; unused ones are H or OH. Bridge positions count the residues as written; N and C are the ends. Square brackets hold non-standard residues; d marks the D form. Peptide text beside a SMILES is read from it. I, II: the chains in the order shown. Actinocin(9to1) = Cc1c2oc3c(C)ccc(C(=O)[*:1])c3nc-2c(C(=O)[*:2])c(N)c1=O; NMeV = CN[C@H](C(=O)O)C(C)C; Sar = CNCC(=O)O
# System: Schistosoma mansoni schistosomula
# Experiment: Mahalanobis distance of static-rate-frequency phenotype descriptors from DMSO controls (dimensionless); higher = stronger phenotypic change versus DMSO
# Conditions: 10 µM; 72 h
row,SMILES,Mahalanobis distance
1,CCNC(=O)[C@@H]1CCCN1C(=O)[C@H](CCCNC(=N)N)NC(=O)[C@H](CC(C)C)NC(=O)[C@@H](CC(C)C)NC(=O)[C@H](Cc1ccc(O)cc1)NC(=O)[C@H](CO)NC(=O)[C@H](Cc1c[nH]c2ccccc12)NC(=O)[C@H](Cc1c[nH]cn1)NC(=O)[C@@H]1CCC(=O)N1 [Leuprolide],inactive: 1.58
2,COc1cc(NS(=O)(=O)c2ccc(N)cc2)nc(OC)n1 [Sulfadimethoxine],inactive: 1.92
3,CC[N+](CC)(CC(=O)Nc1c(C)cccc1C)Cc1ccccc1 [Denatonium Benzoate],inactive: 1.26
4,CC1(C)O[C@@H]2[C@@H](CO[C@@]3(COS(N)(=O)=O)OC(C)(C)O[C@@H]23)O1 [Topiramate],active: 2.52
5,O=C(O)CCCC[C@@H]1CCSS1 [Thioctic Acid],inactive: 1.93
6,CCCCCCCCNC(C)C(O)c1ccc(SC(C)C)cc1 (stereo not drawn) [suloctidil],active: 2.98
7,C[C@H]1O[C@@H](O[C@H]2[C@@H](O)C[C@H](O[C@H]3[C@@H](O)C[C@H](O[C@H]4CC[C@@]5(C)[C@H](CC[C@@H]6[C@@H]5CC[C@]5(C)[C@@H](C7=CC(=O)OC7)CC[C@]65O)C4)O[C@@H]3C)O[C@@H]2C)C[C@H](O)[C@@H]1O [digitoxin],inactive: 2.39
8,CN(Cc1ccc(C(C)(C)C)cc1)Cc1cccc2ccccc12 [Butenafine],inactive: 2.07
9,CC(C)NC(=N)NC(=N)Nc1ccc(Cl)cc1 [Proguanil; Chlorguanide Hydrochloride],inactive: 2.21
10,O=c1[nH]c(=O)n([C@H]2C[C@H](O)[C@@H](CO)O2)cc1C(F)(F)F [Trifluridine],inactive: 1.78
11,CCCC(=O)O[C@]1(C(=O)CO)CC[C@H]2[C@@H]3CCC4=CC(=O)CC[C@]4(C)[C@H]3[C@@H](O)C[C@@]21C [Hydrocortisone Butyrate],inactive: 2.28
12,CC1(C)S[C@@H]2[C@H](NC(=O)COc3ccccc3)C(=O)N2[C@H]1C(=O)O [Penicillin V Potassium],inactive: 2.24
13,Cc1ccc(C(C)C)c(O)c1 [Thymol],inactive: 1.92
14,Clc1cc(Cl)c(OCC#CI)cc1Cl [Haloprogin],inactive: 2.05
15,Nc1nnc(-c2cccc(Cl)c2Cl)c(N)n1 [Lamotrigine],inactive: 2.14
16,CC(=O)O[C@]1(C(C)=O)CC[C@H]2[C@@H]3C=C(C)C4=CC(=O)CC[C@]4(C)[C@H]3CC[C@@]21C [Megestrol Acetate],inactive: 2.1
17,Cc1c(C)c2c(c(C)c1O)CCC(C)(CCCC(C)CCCC(C)CCCC(C)C)O2 (stereo not drawn) [Alpha-tochopherol],inactive: 2.36
18,"Cc1c2oc3c(C)ccc(C(=O)N[C@@H]4C(=O)N[C@H](C(C)C)C(=O)N5CCC[C@H]5C(=O)N(C)CC(=O)N(C)[C@@H](C(C)C)C(=O)O[C@@H]4C)c3nc-2c(C(=O)N[C@@H]2C(=O)N[C@H](C(C)C)C(=O)N3CCC[C@H]3C(=O)N(C)CC(=O)N(C)[C@@H](C(C)C)C(=O)O[C@@H]2C)c(N)c1=O [Dactinomycin] (I: T[dV]P[Sar][NMeV] / II: T[dV]P[Sar][NMeV]; ester I:1-I:C, II:1-II:C; linker I:N-II:N via Actinocin(9to1))",inactive: 2.06
19,Cc1nccn1CC1CCc2c(c3ccccc3n2C)C1=O (stereo not drawn) [Ondansetron],active: 3.62

# Looked up above.
# Nc1nnc(-c2cccc(Cl)c2Cl)c(N)n1 [Lamotrigine] – Mahalanobis distance: inactive: 2.14
# O=c1[nH]c(=O)n([C@H]2C[C@H](O)[C@@H](CO)O2)cc1C(F)(F)F [Trifluridine] – Mahalanobis distance: inactive: 1.78

# Remaining list, next part

row,SMILES,Mahalanobis distance
1,NC(=O)c1cc[n+](CC2=C(C(=O)[O-])N3C(=O)[C@@H](NC(=O)Cc4cccs4)[C@H]3SC2)cc1 [Cefalonium],inactive: 1.86
2,O=C1C(O)=C(O)C(=O)C(O)=C1O [Tetroquinone],inactive: 1.36
3,O=C(c1cccnc1)N1CCOCC1 [Nicopholine],inactive: 1.61
4,COc1ccc2cc3[n+](cc2c1OC)CCc1cc2c(cc1-3)OCO2 [Berberine Chloride],inactive: 2.36
5,CC1=C(C(=O)O)N2C(=O)[C@@H](NC(=O)[C@H](N)c3ccccc3)[C@H]2SC1 [Cephalexin],inactive: 2.03
6,CC[C@H](C)C(=O)O[C@H]1C[C@H](O)C=C2C=C[C@H](C)[C@H](CC[C@@H](O)C[C@@H](O)CC(=O)O)[C@H]21 [Pravastatin Sodium],inactive: 1.95
7,CC[C@H](C)C(=O)O[C@H]1C[C@H](O)C=C2C=C[C@H](C)[C@H](CC[C@@H](O)C[C@@H](O)CC(=O)O)[C@H]21 [Pravastatin],inactive: 2.2
8,O=C(O)Cc1cc(I)c(Oc2ccc(O)c(I)c2)c(I)c1 [Tiratricol],inactive: 2.36
9,O=C(CCCCC(=O)Nc1c(I)cc(I)c(C(=O)O)c1I)Nc1c(I)cc(I)c(C(=O)O)c1I [iodipamide],active: 2.63
10,Cc1ccc(C(=O)C(C)CN2CCCCC2)cc1 (stereo not drawn) [tolperisone],inactive: 1.91
11,CCCCC1C(=O)N(c2ccccc2)N(c2ccccc2)C1=O [Phenylbutazone],inactive: 1.42
12,CC(=O)/N=c1/sc(S(N)(=O)=O)nn1C [Methazolamide],inactive: 1.76
13,CC1=CC(=O)c2ccccc2C1=O [menadione],inactive: 2.46
14,COCCCOc1cc(C[C@@H](C[C@H](N)[C@@H](O)C[C@H](C(=O)NCC(C)(C)C(N)=O)C(C)C)C(C)C)ccc1OC [Aliskiren Hemifumarate],inactive: 1.77
15,CCCCOC(=O)c1ccc(O)cc1 [Butylparaben],inactive: 1.73
16,CN1[C@@H]2CC[C@H]1C[C@@H](OC(c1ccccc1)c1ccccc1)C2 [Benztropine],active: 3.29
17,CC#CCC(C)[C@H](O)/C=C/[C@@H]1[C@H]2C/C(=C/CCCC(=O)O)C[C@H]2C[C@H]1O (stereo partly drawn) [Iloprost],inactive: 1.69
18,N=C(N)c1ccc(N=NNc2ccc(C(=N)N)cc2)cc1 [Diminazene Aceturate],active: 5.17
19,CC(=O)OCC(=O)[C@@]12OC3(CCCC3)O[C@@H]1C[C@H]1[C@@H]3CCC4=CC(=O)C=C[C@]4(C)[C@@]3(F)[C@@H](O)C[C@@]12C [Amcinonide],inactive: 1.49

# Reference: the supplement of paper PMC7752906
